33 targets from the supplement of paper PMC10849652 can be followed below.

Protein sequences, listed by entry. Tags and fused reporters are not part of them. Lines headed by an entry give the natural chain unless they say otherwise; changes in a name come on top.
UniProt P20020: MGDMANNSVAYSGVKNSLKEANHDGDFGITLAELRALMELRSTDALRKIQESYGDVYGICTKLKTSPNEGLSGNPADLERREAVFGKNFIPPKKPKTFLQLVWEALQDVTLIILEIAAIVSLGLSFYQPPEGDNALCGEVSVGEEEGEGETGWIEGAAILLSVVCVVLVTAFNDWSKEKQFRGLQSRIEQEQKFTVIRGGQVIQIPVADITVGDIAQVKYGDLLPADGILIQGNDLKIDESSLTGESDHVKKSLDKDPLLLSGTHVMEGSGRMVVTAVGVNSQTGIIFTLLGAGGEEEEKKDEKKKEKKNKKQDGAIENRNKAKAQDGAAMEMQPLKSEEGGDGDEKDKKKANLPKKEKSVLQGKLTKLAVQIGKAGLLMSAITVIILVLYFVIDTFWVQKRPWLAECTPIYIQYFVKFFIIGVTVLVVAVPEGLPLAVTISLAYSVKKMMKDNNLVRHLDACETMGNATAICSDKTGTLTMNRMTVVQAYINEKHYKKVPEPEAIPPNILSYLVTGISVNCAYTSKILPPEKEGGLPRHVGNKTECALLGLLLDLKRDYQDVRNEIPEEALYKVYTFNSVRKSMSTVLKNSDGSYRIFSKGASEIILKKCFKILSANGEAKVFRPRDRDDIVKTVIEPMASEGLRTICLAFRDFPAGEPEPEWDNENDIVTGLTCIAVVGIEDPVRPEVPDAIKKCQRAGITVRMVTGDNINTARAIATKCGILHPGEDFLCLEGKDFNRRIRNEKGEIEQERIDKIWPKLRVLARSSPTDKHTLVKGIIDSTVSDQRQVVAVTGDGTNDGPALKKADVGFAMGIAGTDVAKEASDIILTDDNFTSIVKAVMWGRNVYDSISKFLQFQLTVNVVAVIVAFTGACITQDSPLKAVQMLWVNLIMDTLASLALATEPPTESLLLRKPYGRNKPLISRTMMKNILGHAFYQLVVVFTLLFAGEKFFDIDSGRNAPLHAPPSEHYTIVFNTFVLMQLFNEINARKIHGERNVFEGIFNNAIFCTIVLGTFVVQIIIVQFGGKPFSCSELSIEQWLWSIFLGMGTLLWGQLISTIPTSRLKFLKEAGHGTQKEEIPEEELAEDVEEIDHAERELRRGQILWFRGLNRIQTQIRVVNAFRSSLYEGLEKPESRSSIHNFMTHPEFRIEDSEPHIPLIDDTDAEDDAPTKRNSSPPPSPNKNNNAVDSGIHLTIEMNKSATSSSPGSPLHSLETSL
UniProt Q9NVP2, whole entry, looked up: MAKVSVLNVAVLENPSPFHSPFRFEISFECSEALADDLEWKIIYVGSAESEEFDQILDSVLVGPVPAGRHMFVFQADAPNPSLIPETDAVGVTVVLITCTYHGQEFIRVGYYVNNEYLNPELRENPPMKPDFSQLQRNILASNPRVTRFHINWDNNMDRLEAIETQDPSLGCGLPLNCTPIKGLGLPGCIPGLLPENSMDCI
UniProt O43861: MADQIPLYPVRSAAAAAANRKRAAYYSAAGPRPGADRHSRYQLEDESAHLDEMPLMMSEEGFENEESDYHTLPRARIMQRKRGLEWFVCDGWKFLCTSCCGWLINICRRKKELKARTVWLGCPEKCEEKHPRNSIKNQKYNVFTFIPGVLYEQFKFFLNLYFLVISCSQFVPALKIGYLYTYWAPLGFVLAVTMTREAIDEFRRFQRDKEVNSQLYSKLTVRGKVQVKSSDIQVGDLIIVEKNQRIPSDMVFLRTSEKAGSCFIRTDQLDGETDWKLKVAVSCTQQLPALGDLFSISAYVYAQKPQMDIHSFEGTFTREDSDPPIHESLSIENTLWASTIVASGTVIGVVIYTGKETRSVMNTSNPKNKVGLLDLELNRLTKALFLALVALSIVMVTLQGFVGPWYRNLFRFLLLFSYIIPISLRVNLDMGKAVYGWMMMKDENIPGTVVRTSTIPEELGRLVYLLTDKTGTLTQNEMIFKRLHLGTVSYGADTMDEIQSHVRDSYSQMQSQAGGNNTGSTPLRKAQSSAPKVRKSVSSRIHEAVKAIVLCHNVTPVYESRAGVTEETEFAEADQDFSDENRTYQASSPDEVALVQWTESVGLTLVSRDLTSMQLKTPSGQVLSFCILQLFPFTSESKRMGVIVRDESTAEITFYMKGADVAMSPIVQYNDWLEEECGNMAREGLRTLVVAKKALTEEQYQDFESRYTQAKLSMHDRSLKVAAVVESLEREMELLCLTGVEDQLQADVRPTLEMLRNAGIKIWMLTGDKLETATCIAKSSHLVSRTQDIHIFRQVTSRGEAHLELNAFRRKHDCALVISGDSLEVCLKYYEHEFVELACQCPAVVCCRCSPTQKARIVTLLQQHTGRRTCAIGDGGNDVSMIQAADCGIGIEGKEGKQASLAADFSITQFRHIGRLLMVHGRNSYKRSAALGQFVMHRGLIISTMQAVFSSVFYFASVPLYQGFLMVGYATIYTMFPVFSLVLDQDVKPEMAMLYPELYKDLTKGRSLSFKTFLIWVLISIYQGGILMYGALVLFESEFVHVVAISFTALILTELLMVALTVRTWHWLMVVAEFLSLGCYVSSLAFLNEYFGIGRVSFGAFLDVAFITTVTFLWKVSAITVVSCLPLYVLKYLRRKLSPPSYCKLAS
UniProt P30049: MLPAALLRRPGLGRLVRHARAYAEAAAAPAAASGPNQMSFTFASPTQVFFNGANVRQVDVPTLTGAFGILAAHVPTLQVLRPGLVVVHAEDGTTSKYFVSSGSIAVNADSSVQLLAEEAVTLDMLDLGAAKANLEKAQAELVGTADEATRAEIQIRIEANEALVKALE
UniProt Q9UII2: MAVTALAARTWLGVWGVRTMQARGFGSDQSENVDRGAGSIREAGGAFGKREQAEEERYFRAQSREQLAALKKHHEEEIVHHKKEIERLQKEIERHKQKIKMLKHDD
UniProt P15313, whole entry, looked up: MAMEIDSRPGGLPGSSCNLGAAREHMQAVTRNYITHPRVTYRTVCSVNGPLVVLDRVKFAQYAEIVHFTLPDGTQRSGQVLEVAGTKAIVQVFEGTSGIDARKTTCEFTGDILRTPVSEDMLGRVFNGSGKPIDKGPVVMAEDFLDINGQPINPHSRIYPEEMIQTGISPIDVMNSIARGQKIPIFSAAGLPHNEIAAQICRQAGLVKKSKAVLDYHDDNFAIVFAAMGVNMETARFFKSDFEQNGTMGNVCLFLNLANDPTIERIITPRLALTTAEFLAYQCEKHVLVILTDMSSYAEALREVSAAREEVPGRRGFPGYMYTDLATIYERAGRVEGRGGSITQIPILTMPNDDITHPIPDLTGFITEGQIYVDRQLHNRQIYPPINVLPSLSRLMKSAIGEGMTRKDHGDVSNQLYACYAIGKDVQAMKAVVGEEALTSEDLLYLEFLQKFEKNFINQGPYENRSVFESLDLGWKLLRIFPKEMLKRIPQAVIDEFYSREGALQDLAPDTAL
UniProt P38606, whole entry, looked up: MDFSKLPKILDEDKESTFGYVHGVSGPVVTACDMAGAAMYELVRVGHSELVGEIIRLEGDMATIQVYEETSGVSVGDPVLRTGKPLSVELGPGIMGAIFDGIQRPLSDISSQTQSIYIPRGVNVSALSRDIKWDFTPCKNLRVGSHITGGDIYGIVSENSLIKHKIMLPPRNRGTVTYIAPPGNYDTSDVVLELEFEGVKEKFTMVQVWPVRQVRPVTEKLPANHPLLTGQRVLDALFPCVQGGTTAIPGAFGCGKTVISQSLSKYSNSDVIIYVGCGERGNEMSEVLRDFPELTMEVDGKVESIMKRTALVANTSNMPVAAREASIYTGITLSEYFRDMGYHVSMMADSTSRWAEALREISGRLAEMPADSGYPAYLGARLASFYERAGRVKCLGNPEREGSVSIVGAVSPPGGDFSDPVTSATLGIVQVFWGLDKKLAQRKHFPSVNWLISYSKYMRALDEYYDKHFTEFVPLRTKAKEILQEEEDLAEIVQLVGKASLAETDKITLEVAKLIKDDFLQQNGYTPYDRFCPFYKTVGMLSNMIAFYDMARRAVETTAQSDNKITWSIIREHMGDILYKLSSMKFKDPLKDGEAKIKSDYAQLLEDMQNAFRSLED
UniProt O95260: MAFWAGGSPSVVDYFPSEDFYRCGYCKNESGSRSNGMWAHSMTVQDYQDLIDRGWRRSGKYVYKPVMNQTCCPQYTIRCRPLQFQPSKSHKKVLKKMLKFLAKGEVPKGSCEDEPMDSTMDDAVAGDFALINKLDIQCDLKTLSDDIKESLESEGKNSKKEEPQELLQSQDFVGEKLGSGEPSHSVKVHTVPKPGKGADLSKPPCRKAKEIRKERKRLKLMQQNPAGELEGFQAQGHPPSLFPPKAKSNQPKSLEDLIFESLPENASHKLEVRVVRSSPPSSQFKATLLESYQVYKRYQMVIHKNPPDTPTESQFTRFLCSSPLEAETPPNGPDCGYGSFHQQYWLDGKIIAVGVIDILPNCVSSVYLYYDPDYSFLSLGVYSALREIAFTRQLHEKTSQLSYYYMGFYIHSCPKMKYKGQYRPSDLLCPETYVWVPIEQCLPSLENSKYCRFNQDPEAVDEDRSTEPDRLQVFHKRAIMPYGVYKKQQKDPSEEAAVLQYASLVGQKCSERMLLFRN
UniProt P56378: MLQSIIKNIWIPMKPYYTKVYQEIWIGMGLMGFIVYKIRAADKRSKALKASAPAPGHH
UniProt P24539: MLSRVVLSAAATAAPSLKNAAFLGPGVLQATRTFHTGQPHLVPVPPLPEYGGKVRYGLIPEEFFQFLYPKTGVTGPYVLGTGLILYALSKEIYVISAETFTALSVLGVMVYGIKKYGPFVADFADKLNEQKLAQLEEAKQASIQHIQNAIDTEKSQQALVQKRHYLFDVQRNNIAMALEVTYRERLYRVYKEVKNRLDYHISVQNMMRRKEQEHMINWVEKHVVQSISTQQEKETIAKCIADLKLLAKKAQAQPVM
UniProt Q9Y679: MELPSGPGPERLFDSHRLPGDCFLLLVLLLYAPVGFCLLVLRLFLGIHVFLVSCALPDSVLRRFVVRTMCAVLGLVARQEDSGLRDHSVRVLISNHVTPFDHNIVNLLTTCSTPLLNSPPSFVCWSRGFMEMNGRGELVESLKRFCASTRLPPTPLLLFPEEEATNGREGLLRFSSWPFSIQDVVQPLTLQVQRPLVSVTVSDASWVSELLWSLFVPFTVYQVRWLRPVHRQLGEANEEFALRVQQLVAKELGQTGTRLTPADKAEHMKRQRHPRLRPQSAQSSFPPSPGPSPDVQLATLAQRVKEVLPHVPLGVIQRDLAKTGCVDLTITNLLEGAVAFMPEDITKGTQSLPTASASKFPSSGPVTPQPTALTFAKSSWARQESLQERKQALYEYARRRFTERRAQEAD
UniProt Q16864, whole entry, looked up: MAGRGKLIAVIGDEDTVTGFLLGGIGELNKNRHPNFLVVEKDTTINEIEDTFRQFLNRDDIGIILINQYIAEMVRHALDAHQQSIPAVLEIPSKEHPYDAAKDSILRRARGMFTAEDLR
UniProt P36543, whole entry, looked up: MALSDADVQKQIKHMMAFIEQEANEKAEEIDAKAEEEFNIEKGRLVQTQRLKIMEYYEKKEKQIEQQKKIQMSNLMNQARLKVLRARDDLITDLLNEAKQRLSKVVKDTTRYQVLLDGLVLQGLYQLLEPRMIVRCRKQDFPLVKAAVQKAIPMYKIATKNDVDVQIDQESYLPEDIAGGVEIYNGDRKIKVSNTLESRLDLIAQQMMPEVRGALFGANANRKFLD
UniProt O43681: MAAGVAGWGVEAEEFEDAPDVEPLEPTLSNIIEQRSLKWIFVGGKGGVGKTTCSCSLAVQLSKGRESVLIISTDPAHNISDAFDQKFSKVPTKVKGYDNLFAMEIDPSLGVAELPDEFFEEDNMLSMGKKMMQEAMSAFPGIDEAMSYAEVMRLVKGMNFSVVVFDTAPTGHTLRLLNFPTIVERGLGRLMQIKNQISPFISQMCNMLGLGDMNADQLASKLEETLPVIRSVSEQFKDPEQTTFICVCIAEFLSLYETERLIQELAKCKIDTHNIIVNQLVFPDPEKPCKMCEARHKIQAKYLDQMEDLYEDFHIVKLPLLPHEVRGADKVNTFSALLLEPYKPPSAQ
UniProt Q9Y6H3: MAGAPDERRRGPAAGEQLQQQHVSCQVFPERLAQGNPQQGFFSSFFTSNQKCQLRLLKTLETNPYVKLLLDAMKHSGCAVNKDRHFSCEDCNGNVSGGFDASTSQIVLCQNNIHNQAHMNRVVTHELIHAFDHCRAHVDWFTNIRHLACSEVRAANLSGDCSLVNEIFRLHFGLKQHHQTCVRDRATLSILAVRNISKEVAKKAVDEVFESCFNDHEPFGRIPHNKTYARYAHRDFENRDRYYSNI
UniProt Q9NWX5: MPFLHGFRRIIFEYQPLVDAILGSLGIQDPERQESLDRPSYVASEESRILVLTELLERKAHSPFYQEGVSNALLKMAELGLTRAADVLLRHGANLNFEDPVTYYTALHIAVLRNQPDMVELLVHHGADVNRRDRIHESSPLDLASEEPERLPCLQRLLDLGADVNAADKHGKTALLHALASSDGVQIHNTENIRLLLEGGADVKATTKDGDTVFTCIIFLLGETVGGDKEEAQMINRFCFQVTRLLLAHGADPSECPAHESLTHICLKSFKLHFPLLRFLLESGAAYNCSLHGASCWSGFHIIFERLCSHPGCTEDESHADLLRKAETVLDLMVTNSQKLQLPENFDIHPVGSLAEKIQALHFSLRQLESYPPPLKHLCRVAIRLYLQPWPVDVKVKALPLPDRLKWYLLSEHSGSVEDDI

This is one part of the list.

Compound in the first assay: CS(=O)(=O)CCNCc1ccc(-c2ccc3ncnc(Nc4ccc(OCc5cccc(F)c5)c(Cl)c4)c3c2)o1 [lapatinib]
Nature of the assay: log2 fold change, soluble protein after heating vs DMSO (PISA); higher = thermal stabilisation; K562 lysate, 10 uM; active = over 0.2 and 3.5 SD of the protein, either way, in both replicates (recomputed). The method, boiled down: (§1)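 Following dounce homogenisation of K562 pellets in PBS pH 7.4 with 1 mM MgCl2, crude extract at 1 mg/mL protein was incubated for 30 min with 10 μM compound. Aliquots were then heated for 3 min over 48°C-58°C and pooled, NP-40 was added to 0.5% at 4°C, and soluble protein was recovered as the supernatant at 21,000xg for 90 min. Channel-sum-equalised TMTpro 16plex LC-MS/MS quantified this protein. Each value, from duplicates, is a log-two fold change in thermal stability relative to solvent controls.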
As for ASF1A (UniProt Q9Y294), the log2 fold change is inactive: -0.002.

On to ATP2B1 isoform 1 (UniProt P20020), for which the log2 fold change is inactive: -0.041.

As for ASF1B (UniProt Q9NVP2), the log2 fold change was inactive: -0.025.

On to ATP2A3 isoform 2 (UniProt Q93084), for which the log2 fold change is inactive: 0.012.

Take ATL2 (UniProt Q8NHH9): the log2 fold change was inactive: -0.022.

Take ASCC2 (UniProt Q9H1I8): the log2 fold change was inactive: -0.012.

Take ASNS (UniProt P08243): the log2 fold change was inactive: -0.019.

On to ATP9B (UniProt O43861), for which the log2 fold change was inactive: -0.063.

In the case of ASS1 (UniProt P00966), the log2 fold change was inactive: -0.032.

On to ATP5F1D (UniProt P30049), for which the log2 fold change was inactive: 0.01.

Consider ATG4B (UniProt Q9Y4P1), for which the log2 fold change was inactive: 0.012.

For the target ATG2A isoform 3 (UniProt Q2TAZ0), the log2 fold change is inactive: -0.029.

Turning to ATP5IF1 (UniProt Q9UII2), the log2 fold change is inactive: -0.043.

As to ATP6V1B1 (UniProt P15313), the log2 fold change was inactive: -0.028.

On to ATP6V1A (UniProt P38606), for which the log2 fold change is inactive: -0.019.

Turning to ATE1 isoform 2 (UniProt O95260), the log2 fold change was inactive: 0.021.

As to ATP5MF-PTCD1 (UniProt G3V325), the log2 fold change is inactive: -0.025.

Turning to ATP5MPL (UniProt P56378), the log2 fold change is inactive: 0.037.

For the target ATP5PB (UniProt P24539), the log2 fold change is inactive: -0.033.

As to AUP1 (UniProt Q9Y679), the log2 fold change was inactive: 0.106.

Consider ATXN10 (UniProt Q9UBB4), for which the log2 fold change is inactive: -0.012.

In the case of ASH2L (UniProt Q9UBL3), the log2 fold change is inactive: 0.014.

For ATOX1 (UniProt O00244), the log2 fold change is inactive: -0.005.

For ATP13A3 (UniProt Q9H7F0), the log2 fold change is inactive: -0.029.

For the target ATP6V1F isoform 2 (UniProt Q16864), the log2 fold change is inactive: 0.08.

Turning to ATP6V1E1 (UniProt P36543), the log2 fold change is inactive: -0.008.

Regarding ASNA1 (UniProt O43681), the log2 fold change was inactive: -0.01.

Consider ATP11B (UniProt Q9Y2G3), for which the log2 fold change is inactive: -0.023.

Turning to ATR (UniProt Q13535), the log2 fold change is inactive: -0.036.

Turning to ATF1 (UniProt P18846), the log2 fold change is inactive: 0.078.

Consider ATP23 (UniProt Q9Y6H3), for which the log2 fold change is inactive: -0.042.

As for ATP6V0A2 (UniProt Q9Y487), the log2 fold change is inactive: -0.07.

On to ASB6 (UniProt Q9NWX5), for which the log2 fold change is inactive: -0.04.

Compound in another assay: CS(=O)(=O)N1CCN(Cc2cc3nc(-c4cccc5[nH]ncc45)nc(N4CCOCC4)c3s2)CC1 [pictilisib]
The description is as above. An outline of the steps: as §1
With ASF1A (UniProt Q9Y294), the log2 fold change was inactive: 0.003.

Regarding ATP2B1 isoform 1 (UniProt P20020), the log2 fold change is inactive: -0.027.

With ASF1B (UniProt Q9NVP2), the log2 fold change was inactive: -0.034.

As for ATP2A3 isoform 2 (UniProt Q93084), the log2 fold change is inactive: -0.02.

Turning to ATL2 (UniProt Q8NHH9), the log2 fold change is inactive: -0.022.

As for ASCC2 (UniProt Q9H1I8), the log2 fold change was inactive: 0.049.

For ASNS (UniProt P08243), the log2 fold change is inactive: -0.012.

ATP9B (UniProt O43861): the log2 fold change is inactive: -0.269.

In the case of ASS1 (UniProt P00966), the log2 fold change is inactive: -0.049.

In the case of ATP5F1D (UniProt P30049), the log2 fold change was inactive: 0.005.

On to ATG4B (UniProt Q9Y4P1), for which the log2 fold change is inactive: -0.042.

Turning to ATG2A isoform 3 (UniProt Q2TAZ0), the log2 fold change was inactive: 0.057.

For the target ATP5IF1 (UniProt Q9UII2), the log2 fold change was inactive: 0.

Consider ATP6V1B1 (UniProt P15313), for which the log2 fold change was inactive: -0.028.

Consider ATP6V1A (UniProt P38606), for which the log2 fold change was inactive: 0.016.

For ATE1 isoform 2 (UniProt O95260), the log2 fold change was inactive: -0.058.

As to ATP5MF-PTCD1 (UniProt G3V325), the log2 fold change was inactive: 0.004.

Turning to ATP5MPL (UniProt P56378), the log2 fold change is inactive: 0.047.

For ATP5PB (UniProt P24539), the log2 fold change is inactive: -0.019.

For the target AUP1 (UniProt Q9Y679), the log2 fold change is inactive: 0.037.

For the target ATXN10 (UniProt Q9UBB4), the log2 fold change was inactive: -0.027.

Regarding ASH2L (UniProt Q9UBL3), the log2 fold change is inactive: -0.024.

On to ATOX1 (UniProt O00244), for which the log2 fold change was inactive: -0.05.

ATP13A3 (UniProt Q9H7F0): the log2 fold change is inactive: -0.056.

In the case of ATP6V1F isoform 2 (UniProt Q16864), the log2 fold change was inactive: 0.059.

On to ATP6V1E1 (UniProt P36543), for which the log2 fold change is inactive: -0.004.

With ASNA1 (UniProt O43681), the log2 fold change was inactive: -0.001.

Turning to ATP11B (UniProt Q9Y2G3), the log2 fold change was inactive: -0.018.

As to ATR (UniProt Q13535), the log2 fold change is active: 0.408.

As for ATF1 (UniProt P18846), the log2 fold change is inactive: 0.013.

Take ATP23 (UniProt Q9Y6H3): the log2 fold change is inactive: -0.054.

Turning to ATP6V0A2 (UniProt Q9Y487), the log2 fold change was inactive: -0.047.

For the target ASB6 (UniProt Q9NWX5), the log2 fold change was inactive: -0.029.

Compound in a further assay: C[C@@H](Oc1cc(-c2cnn(C3CCNCC3)c2)cnc1N)c1c(Cl)ccc(F)c1Cl [crizotinib]
The description is as above. An outline of the steps:
as §1
In the case of ASF1A (UniProt Q9Y294), the log2 fold change was inactive: -0.009.

For the target ATP2B1 isoform 1 (UniProt P20020), the log2 fold change was inactive: -0.013.

On to ASF1B (UniProt Q9NVP2), for which the log2 fold change was inactive: -0.028.

Regarding ATP2A3 isoform 2 (UniProt Q93084), the log2 fold change was inactive: -0.05.

As to ATL2 (UniProt Q8NHH9), the log2 fold change was inactive: -0.018.

Take ASCC2 (UniProt Q9H1I8): the log2 fold change was inactive: -0.044.

Turning to ASNS (UniProt P08243), the log2 fold change was inactive: -0.042.

In the case of ATP9B (UniProt O43861), the log2 fold change is inactive: 0.032.

With ASS1 (UniProt P00966), the log2 fold change is inactive: -0.023.

Regarding ATP5F1D (UniProt P30049), the log2 fold change was inactive: 0.006.

With ATG4B (UniProt Q9Y4P1), the log2 fold change was inactive: -0.087.

On to ATG2A isoform 3 (UniProt Q2TAZ0), for which the log2 fold change was inactive: -0.087.

As for ATP5IF1 (UniProt Q9UII2), the log2 fold change was inactive: -0.002.

On to ATP6V1B1 (UniProt P15313), for which the log2 fold change is inactive: -0.035.

Regarding ATP6V1A (UniProt P38606), the log2 fold change was inactive: 0.032.

As for ATE1 isoform 2 (UniProt O95260), the log2 fold change was inactive: 0.024.

Consider ATP5MF-PTCD1 (UniProt G3V325), for which the log2 fold change is inactive: 0.016.

As to ATP5MPL (UniProt P56378), the log2 fold change is inactive: -0.026.

As to ATP5PB (UniProt P24539), the log2 fold change was inactive: 0.048.

In the case of AUP1 (UniProt Q9Y679), the log2 fold change is inactive: -0.094.

For the target ATXN10 (UniProt Q9UBB4), the log2 fold change was inactive: 0.014.

As for ASH2L (UniProt Q9UBL3), the log2 fold change is inactive: 0.006.

For ATOX1 (UniProt O00244), the log2 fold change is inactive: -0.065.

As to ATP13A3 (UniProt Q9H7F0), the log2 fold change was inactive: -0.008.

Consider ATP6V1F isoform 2 (UniProt Q16864), for which the log2 fold change is inactive: 0.023.

Take ATP6V1E1 (UniProt P36543): the log2 fold change was inactive: 0.023.

ASNA1 (UniProt O43681): the log2 fold change is inactive: -0.023.

As to ATP11B (UniProt Q9Y2G3), the log2 fold change was inactive: 0.029.

In the case of ATR (UniProt Q13535), the log2 fold change is inactive: -0.1.

Take ATF1 (UniProt P18846): the log2 fold change is inactive: 0.008.

For ATP23 (UniProt Q9Y6H3), the log2 fold change is inactive: 0.073.

As to ATP6V0A2 (UniProt Q9Y487), the log2 fold change is inactive: -0.016.

ASB6 (UniProt Q9NWX5): the log2 fold change is inactive: 0.01.
